Values quoted from earlier work in patent US10960015B2, “Effervescent formulation based on pyridoxal-5-phosphate” (Assistance Publique-Hopitaux De Paris, priority 2015, dated 2021).
For at least one compound, name, drawing or mass did not settle the structure.

Test system: seizures
Conditions: first-line treatment, neonatal seizures; cited from earlier work

CCC1(c2ccccc2)C(=O)NC(=O)NC1=O [phenobarbital]
Response to the treatment: 50%
